Source: patent US20240197744A1, “TREATING SEX STEROID DEPENDENT CANCER WITH BMX INHIBITORS” (The Cleveland Clinic Foundation, priority 2021, published 2024)
Results are given in words; binding and its absence hold for the method and conditions named. Some entries that bind do so weakly or less than the wild type.

Target: T1, 3βHSD1 (endogenous, human prostate tissue) (human) (UniProt P14060)
T1 sequence (looked up): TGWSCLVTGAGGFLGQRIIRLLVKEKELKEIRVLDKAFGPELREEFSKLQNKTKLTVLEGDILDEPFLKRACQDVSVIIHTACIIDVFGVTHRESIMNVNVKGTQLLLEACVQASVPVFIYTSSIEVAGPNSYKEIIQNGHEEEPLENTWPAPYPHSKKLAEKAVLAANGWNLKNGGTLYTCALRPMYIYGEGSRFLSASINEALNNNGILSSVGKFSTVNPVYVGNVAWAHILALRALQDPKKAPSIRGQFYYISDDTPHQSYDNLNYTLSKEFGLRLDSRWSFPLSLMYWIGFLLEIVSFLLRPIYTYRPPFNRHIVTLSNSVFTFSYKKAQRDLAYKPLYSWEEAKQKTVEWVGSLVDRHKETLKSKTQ
Test: immunoprecipitation and western blot from patient prostate tissue

binding: binds
B1: BMX (endogenous, human prostate tissue) (enzyme, UniProt P51813 1-675, looked up)
chain: MDTKSILEELLLKRSQQKKKMSPNNYKERLFVLTKTNLSYYEYDKMKRGSRKGSIEIKKIRCVEKVNLEEQTPVERQYPFQIVYKDGLLYVYASNEESRSQWLKALQKEIRGNPHLLVKYHSGFFVDGKFLCCQQSCKAAPGCTLWEAYANLHTAVNEEKHRVPTFPDRVLKIPRAVPVLKMDAPSSSTTLAQYDNESKKNYGSQPPSSSTSLAQYDSNSKKIYGSQPNFNMQYIPREDFPDWWQVRKLKSSSSSEDVASSNQKERNVNHTTSKISWEFPESSSSEEEENLDDYDWFAGNISRSQSEQLLRQKGKEGAFMVRNSSQVGMYTVSLFSKAVNDKKGTVKHYHVHTNAENKLYLAENYCFDSIPKLIHYHQHNSAGMITRLRHPVSTKANKVPDSVSLGNGIWELKREEITLLKELGSGQFGVVQLGKWKGQYDVAVKMIKEGSMSEDEFFQEAQTMMKLSHPKLVKFYGVCSKEYPIYIVTEYISNGCLLNYLRSHGKGLEPSQLLEMCYDVCEGMAFLESHQFIHRDLAARNCLVDRDLCVKVSDFGMTRYVLDDQYVSSVGTKFPVKWSAPEVFHYFKYSSKSDVWAFGILMWEVFSLGKQPYDLYDNSQVVLKVSQGHRLYRPHLASDTIYQIMYSCWHELPEKRPTFQQLLSSIEPLREKDKH
